Reference: publication PMC5751700
These are yes or no findings as the source states them, for the method shown.

Chains of the proteins cited; added tags and fusions are not shown. Residues count along the entry.
UniProt P61823, residues 27-150: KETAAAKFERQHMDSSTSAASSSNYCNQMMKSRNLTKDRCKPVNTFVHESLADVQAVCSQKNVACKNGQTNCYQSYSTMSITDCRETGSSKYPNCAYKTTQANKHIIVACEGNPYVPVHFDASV
UniProt P02769, residues 25-607: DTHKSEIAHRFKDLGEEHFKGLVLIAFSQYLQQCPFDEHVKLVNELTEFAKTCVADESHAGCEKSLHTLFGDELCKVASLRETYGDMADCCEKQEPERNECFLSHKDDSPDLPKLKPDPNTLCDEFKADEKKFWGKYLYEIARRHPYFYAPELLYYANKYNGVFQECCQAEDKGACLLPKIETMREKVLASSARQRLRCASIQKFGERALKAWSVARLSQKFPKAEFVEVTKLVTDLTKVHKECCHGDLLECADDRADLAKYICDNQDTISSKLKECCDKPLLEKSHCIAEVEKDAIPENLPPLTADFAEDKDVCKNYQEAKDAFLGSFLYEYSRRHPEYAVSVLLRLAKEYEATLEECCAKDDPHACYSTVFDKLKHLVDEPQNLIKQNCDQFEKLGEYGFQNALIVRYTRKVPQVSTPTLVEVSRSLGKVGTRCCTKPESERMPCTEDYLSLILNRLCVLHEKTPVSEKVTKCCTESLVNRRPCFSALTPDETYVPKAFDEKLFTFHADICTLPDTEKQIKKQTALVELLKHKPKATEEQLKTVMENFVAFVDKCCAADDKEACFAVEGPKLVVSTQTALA

Target: glycoprotein ribonuclease B (UniProt P61823)
Assay: SPR; fibre optic SPR read by intensity (yellow LED 595 nm, web camera); RNase B amine-coupled (MUA, EDC/NHS) on the Au-coated fibre, unreacted esters blocked with BSA; reference channel blocked with BSA without RNase B and subtracted; PBS pH 7.4; 500 uL sample at 250 uL/min; regeneration with 8.0 mol/L urea; both purified

binding: no binding (tested: 0.2 mg/mL)
Substance: bovine serum albumin (from UniProt P02769 25-607)
